# From publication PMC4720616, “Influence of tumour size on the efficacy of targeted alpha therapy with ^213Bi-[DOTA^0,Tyr^3]-octreotate” (EJNMMI Research, 2016)
# Assays:
# [1] = tested on: CA20948 tumour-bearing mice; assay: Dosimetry: absorbed radiation dose in organs and tumour, CA20948 tumour-bearing mice; assay type: in vivo, BALB/c (nu/nu) nude mice; settings: for Tumour dose (Gy): therapy, three injections, estimated from tumour size at T = 0 and injected activity, ± SD
# H69 tumour-bearing mice = assay: Dosimetry: absorbed radiation dose in organs and tumour, H69 tumour-bearing mice; assay type: in vivo, BALB/c (nu/nu) nude mice; settings: for Tumour dose (Gy): therapy, three injections, estimated from tumour size at T = 0 and injected activity, ± SD
# [2] = CA20948 tumour-bearing mice, from biodistribution data
# [3] = H69 tumour-bearing mice, from biodistribution data
compound,measurement,setting,value
"C[C@@H](O)[C@H](NC(=O)[C@@H]1CSSC[C@H](NC(=O)[C@@H](Cc2ccccc2)NC(=O)CN2CCN(CC(=O)O)CCN(CC(=O)O)CCN(CC(=O)O)CC2)C(=O)N[C@@H](Cc2ccc(O)cc2)C(=O)N[C@H](Cc2c[nH]c3ccccc23)C(=O)N[C@@H](CCCCN)C(=O)N[C@@H]([C@@H](C)O)C(=O)N1)C(=O)O [^213Bi-DOTATATE, ^213Bi-[DOTA^0, Tyr^3]-octreotate, metal not drawn]",Tumour dose (Gy),[1]; CA20948 large tumours,10 ± 5 Gy
same,Tumour dose (Gy),[1]; CA20948 small tumours,17 ± 1 Gy
same,Tumour-absorbed radiation dose,"[1]; CA20948 tumour-bearing mice, from biodistribution at 10, 30, 60 and 120 min p.i.",0.78 Gy/MBq
same,"Absorbed dose, bone marrow",[1]; [2],< 0.02 Gy/MBq
same,"Absorbed radiation dose, kidneys",[1]; [2],1.6 Gy/MBq
same,"Absorbed radiation dose, liver",[1]; [2],0.06 Gy/MBq
same,"Absorbed radiation dose, pancreas",[1]; [2],0.13 Gy/MBq
same,"Absorbed radiation dose, spleen",[1]; [2],0.05 Gy/MBq
same,Tumour dose (Gy),H69 tumour-bearing mice; H69 large tumours,2.0 ± 0.6 Gy
same,Tumour dose (Gy),H69 tumour-bearing mice; H69 small tumours,5 ± 1 Gy
same,"Absorbed dose, bone marrow",H69 tumour-bearing mice; [3],< 0.02 Gy/MBq
same,"Absorbed radiation dose, liver",H69 tumour-bearing mice; [3],0.06 Gy/MBq
same,"Absorbed radiation dose, pancreas",H69 tumour-bearing mice; [3],0.15 Gy/MBq
same,"Absorbed radiation dose, spleen",H69 tumour-bearing mice; [3],0.06 Gy/MBq
same,Tumour-absorbed radiation dose,"H69 tumour-bearing mice; H69 tumour-bearing mice, per MBq injected, calculated for 100 mg tumour, from biodistribution at 10, 30, 60 and 120 min p.i.",0.45 Gy/MBq
same,Renal-absorbed dose,"H69 tumour-bearing mice; H69 tumour-bearing mice, per MBq injected, from biodistribution data",2 Gy/MBq
